Measurements: US7238491, “Pregnane X receptor method” (SmithKline Beecham Corporation)

Molecular target: T1, hPXR (Homo sapiens) (UniProt O75469)
T1 sequence: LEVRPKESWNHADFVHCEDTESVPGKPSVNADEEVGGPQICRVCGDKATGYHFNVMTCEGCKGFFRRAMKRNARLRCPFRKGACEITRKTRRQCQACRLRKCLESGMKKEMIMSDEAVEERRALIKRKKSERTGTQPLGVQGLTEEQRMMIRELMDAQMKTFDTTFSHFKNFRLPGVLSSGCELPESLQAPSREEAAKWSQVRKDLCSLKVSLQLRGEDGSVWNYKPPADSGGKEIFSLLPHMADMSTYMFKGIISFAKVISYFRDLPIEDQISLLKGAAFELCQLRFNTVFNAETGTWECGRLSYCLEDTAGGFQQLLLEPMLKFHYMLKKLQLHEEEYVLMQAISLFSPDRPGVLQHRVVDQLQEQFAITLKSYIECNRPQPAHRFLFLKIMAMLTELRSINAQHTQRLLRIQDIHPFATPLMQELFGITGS
Assay: EMSA
Conditions: hPXR alone without RXR; protein translated in vitro; label: 32P (probe)

## GATCAATATGAACTCAAAGGAGGTCAGTG (double strand) [CYP3A4 IR6 PXRE]
  binding result: no binding

Negatives hold for the conditions tested. Tags and fusion partners may be left off the protein sequences shown.
